Experimental data taken from patent US12616750B2, “Combination therapy utilizing DNA alkylating agents and ATR inhibitors” (Merck Patent GmbH, priority 2018, dated 2026).
Like-named read-outs stand apart in the source and are kept apart here.

Key:
HCC-1954 cells = test: Cytotoxicity (cell viability, CellTiter-Glo, 6 d)
NCI-N87 cells = test: Cytotoxicity (cell viability, CellTiter-Glo, 6 d); format: cell-based; conditions: Homo sapiens, NCI-N87, read-out: cellular cytotoxicity, potency
Protocol: Compounds were added using Tecan D300e liquid. […] Synergy scores were calculated using LOEWE synergy model.

SMILES	IC50 (HCC-1954 cells; read-out: Cytotoxicity IC50, ATRi alone, HCC-1954, mean ± SD) [µM]	IC50 (NCI-N87 cells) [µM]	IC50 (HCC-1954 cells; Homo sapiens, HCC1954, read-out: Cytotoxicity IC50) [µM]
C[C@@H]1COCCN1c1cc(-c2ccnn2C)c2ccnc(-c3ccn[nH]3)c2n1 [ATRi 1]	0.4 ± 0.2		
C[C@@H]1COCCN1c1cc(-c2ccnn2C)c2ccnc(-c3ccn[nH]3)c2n1 [BAY1895344]		0.3 ± 0.3	0.05 ± 0.02
